Measurements reported in PubChem BioAssay AID504467 (National Center for Advancing Translational Sciences (NCATS), 2011).
Hit rate of the full screen: of about 330,000 compounds, about 7,700 (2.3%) were called active. The inconclusive results got no clear call from the source; some entries with a clear call stand among them for comparison. Calls follow the shape of the dose curve; as a rule, active = well fitted inhibition curve with a large enough effect; inconclusive = small, poorly fitted or top-dose-only effect, or effect the other way; inactive = flat fitted curve, though single readings scatter. A potency beside an inconclusive call is a rough fit, not a confirmed value.

Assay: qHTS screen for small molecules that inhibit ELG1-dependent DNA repair in human embryonic kidney (HEK293T) cells expressing luciferase-tagged ELG1; also: nearly all actives have a fitted effect of over 55% in size
Details: HEK293T ELG1-luciferase reporter, luminescence, 16 h, DNA damage induced by 5-fluorouridine; activity change, negative = inhibition: at 46.1 µM (top of the series)
Outline: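 Luminescence from the luciferase reporter, measured 30 min after ONE-Glo reagent at room temperature, was the read-out. Beforehand, 2,000 cells per well were exposed for 16 hr at 37 °C to 5-fluorouridine together with compound or vehicle.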
% is scaled to controls: 0 for no effect and ±100 for the full control effect; potency is read from the fitted curve at half-maximal effect.

Row | SMILES | Potency | activity change, negative = inhibition
1 | CCc1c(C)nc2cc(-c3ccc(OC)c(OC)c3)nn2c1N1CCC(C)CC1 | inconclusive: 0.891 µM [activator, full curve, poor fit] | –
2 | O=C(c1ccccc1Cl)N1CCC(n2cccc2)CC1 | – | inactive: 14.4%
3 | COC(=O)c1ccc(CN2CCN(Cc3ccc(F)cc3)C(CCO)C2)cc1 (stereo not drawn) | inconclusive: 11.6 µM [inhibitor, partial curve, poor fit] | –
4 | Cc1cc(C(=O)NCCN2CCOCC2)ccc1[N+](=O)[O-] | – | inactive: -4.25%
5 | Cc1ccsc1C(=O)Nc1ccc(F)c([N+](=O)[O-])c1 | inconclusive: 23.1 µM [activator, single point] | –
6 | Cc1ccc(NC(=O)/C=C/c2cccs2)c([N+](=O)[O-])c1 | inconclusive: 3.26 µM [activator, partial curve] | –
7 | COc1ccc(CCNC(=O)CCc2nnc(Cc3ccc4c(c3)OCO4)o2)cc1 | – | inactive: -15.3%
8 | CC(C)NS(=O)(=O)c1ccc(OCC(=O)Nc2ccc(F)cc2)cc1 | inconclusive: 16.4 µM [inhibitor, partial curve, poor fit] | –
9 | CCOC(=O)C1CCCN(C(=O)Cn2cccc2C(=O)c2ccccc2)C1 (stereo not drawn) | inconclusive: 3.26 µM [activator, partial curve, poor fit] | –
10 | Cn1c(SCC(=O)c2ccccc2)nnc1-c1ccccn1 | inconclusive: 18.3 µM [activator, partial curve] | –
11 | COc1ccc(CNc2ccc(S(=O)(=O)N3CCN(C)CC3)cn2)cc1OC | – | inactive: 2.2%
12 | Nc1ccc(-n2ccnc2)cc1 | – | inactive: -4.11%
13 | Fc1ccc(N/N=C/C=C/c2ccccc2)c(F)c1 | inconclusive: 18.4 µM [activator, partial curve] | –
14 | O=C(COC(=O)Cc1ccc(S(=O)(=O)N2CCOCC2)s1)Nc1ccccc1 | – | inactive: -4.14%
15 | CCN(CC)S(=O)(=O)c1ccc2c(c1)c(=O)c(C(=O)NCCCN(C)c1ccccc1)cn2C | inconclusive: 18.4 µM [inhibitor, single point] | –
16 | Cc1ccc(NC(=O)Nc2cnc3ccccc3c2)cc1 | inconclusive: 5.17 µM [activator, partial curve] | –
17 | CCOC(=O)c1c(N2C(=O)CC(Sc3ccccc3C(=O)O)C2=O)sc2c1CCCC2 (stereo not drawn) | – | inactive: -7.11%
18 | O=C(COC(=O)CSc1nnc(-c2ccc(Cl)cc2)o1)Nc1cc(Cl)cc(Cl)c1 | inconclusive: 23.1 µM [activator, partial curve, poor fit] | –
19 | CSc1ccccc1C(=O)Nc1cccc([N+](=O)[O-])c1C | – | inactive: 7.68%
20 | O=C(Nc1nnc(COc2ccccc2)s1)C1CCN(S(=O)(=O)c2ccc(Cl)cc2)CC1 | inconclusive: 23.1 µM [activator, partial curve, poor fit] | –
21 | ClC1(Cl)CC1CSc1nc2ccccc2[nH]1 (stereo not drawn) | inconclusive: 23.1 µM [activator, partial curve] | –
22 | Cc1ccc(N(C)S(=O)(=O)c2cccc(C(=O)Nc3nnc(C4CC4)s3)c2)cc1 | inconclusive: 18.3 µM [inhibitor, single point] | –
23 | COc1ccc(CCN2C(=O)CC(NNc3ccc([N+](=O)[O-])cc3)C2=O)cc1OC (stereo not drawn) | – | inactive: -8.82%

Row | SMILES | Potency | activity change, negative = inhibition
24 | COC(=O)c1cc(NC(=O)c2cc3ccccc3o2)cc(C(=O)OC)c1 | inconclusive: 23.1 µM [inhibitor, partial curve, poor fit] | –
25 | COc1ccc(/C=N/Nc2ncc(-c3ccccc3)cn2)c(OC)c1 | – | inactive: -2.07%
26 | CC(C)[C@H](NC(=O)c1cccc(S(=O)(=O)N2CCOCC2)c1)C(=O)Nc1nc2ccccc2s1 | inconclusive: 7.31 µM [activator, partial curve] | –
27 | COc1ccc(S(=O)(=O)N2CCCCCC2)cc1C(=O)N1CCN(c2ccccc2O)CC1 | active: 13 µM | –
28 | COc1cccc(N2CCN(C(=O)c3ccc(CS(=O)c4ccc(Cl)cc4)o3)CC2)c1 (stereo not drawn) | inconclusive: 0.58 µM [inhibitor, partial curve, poor fit] | –
29 | COc1cccc(-c2sc3ccc(OC)cc3c2-c2ccc(C(N)=O)cc2)c1 | – | inactive: 0.451%
30 | Cc1c(Cc2ccccc2)c(=O)n2c([nH]c3ccccc32)c1C#N | active: 2.31 µM | –
31 | Cc1cc(C)cc(CC2CC(=O)N(c3nc(C)cc(C)n3)C2=O)c1 (stereo not drawn) | inconclusive: 23.1 µM [activator, single point] | –
32 | COc1ccc2c(c1OC)C(=O)N(c1cccc(C)c1)C2 | inconclusive: 0.651 µM [activator, full curve] | –
33 | COc1ccc(OC)c(NC(=O)CNC(=O)c2ccc([N+](=O)[O-])cc2)c1 | inconclusive: 20.6 µM [inhibitor, partial curve, poor fit] | –
34 | COC(=O)C1=CN(C2CC2)C=C(C(=O)OC)C1c1ccc(C(=O)OC)cc1 | inconclusive: 11.2 µM [activator, partial curve, poor fit] | –
35 | CC(C)c1ccc(NC(=O)COC(=O)/C=C/c2cccc([N+](=O)[O-])c2)cc1 | inconclusive: 29.1 µM [activator, single point] | –
36 | CCn1c(SCC(N)=O)nc2sc3c(c2c1=O)CCN(C)C3 | inconclusive: 6.51 µM [inhibitor, single point] | –
37 | Cc1c(NC(=O)c2ccc(-c3cccc([N+](=O)[O-])c3)o2)c(=O)n(-c2ccccc2)n1C | inconclusive: 16.4 µM [inhibitor, partial curve, poor fit] | –
38 | COc1cc(C(=O)NCC2CCCO2)ccc1OCc1c(C)noc1C (stereo not drawn) | inconclusive: 29.1 µM [activator, single point] | –
39 | Cc1ccc(CCNC(=O)c2ccc(CS(=O)(=O)Cc3ccccc3F)o2)cc1 | inconclusive: 20.6 µM [inhibitor, partial curve, poor fit] | –
40 | COc1ccccc1NC(=O)Nc1nc(CC(=O)Nc2ccccc2F)cs1 | – | inactive: -29.7%
41 | COc1ccc(NC(=O)CN2CCN(S(=O)(=O)c3ccc(Cl)cc3)CC2)cc1Cl | inconclusive: 25.9 µM [inhibitor, partial curve, poor fit] | –
42 | Cc1cccc(Oc2ncnc(N)c2[N+](=O)[O-])c1 | inconclusive: 18.4 µM [inhibitor, partial curve, poor fit] | –
43 | COc1ccc(S(=O)(=O)N2CCN(Cc3cccc(Cl)c3)CC2)cc1 | – | inactive: -20%
44 | CC(=O)c1cn(N2CCCCC2)c(=O)[nH]c1=O | – | inactive: 14.1%
45 | O=C(CSc1ccc(-c2cccs2)nn1)NCc1ccccc1Cl | inconclusive: 20.6 µM [inhibitor, single point] | –
46 | O=C(CCN1C(=O)/C(=C/c2ccc(Cl)cc2)SC1=S)NC1C=CS(=O)(=O)C1 (stereo not drawn) | inconclusive: 18.3 µM [activator, single point] | –

Row | SMILES | Potency | activity change, negative = inhibition
47 | CC1(c2ccc(OC(F)F)cc2)NC(=O)N(CC(=O)Nc2ccc3c(c2)OCO3)C1=O (stereo not drawn) | – | inactive: -4.83%
48 | Cn1cc(CN2CCC(CO)CC2)c(-c2ccc(Oc3ccccc3)cc2)n1 | – | inactive: 3.38%
49 | O=C(Cc1ccccc1)NCC(=O)N/N=C/c1ccc([N+](=O)[O-])s1 | inconclusive: 29.1 µM [inhibitor, single point] | –
50 | CCOC(=O)c1ccc(NC(c2ccc(N(C)C)cc2)P(=O)(OC(C)C)OC(C)C)cc1 (stereo not drawn) | – | inactive: -20.5%
51 | COc1ccc(S(=O)(=O)NN(C)c2nc(C(F)(F)F)nc3ccccc23)cc1 | inconclusive: 23.1 µM [inhibitor, single point] | –
52 | CC(=O)N1CCN(C(=O)COC(=O)CNC(=O)c2ccc(C)cc2)CC1 | inconclusive: 9.2 µM [activator, partial curve, poor fit] | –
53 | Cc1cccc(NC(=O)CCC(=O)c2cccs2)n1 | inconclusive: 20.6 µM [activator, single point] | –
54 | Cc1cc(=O)[nH]c(-n2nc(C)c(Oc3ccccc3O)c2C)n1 | – | inactive: -22.2%
55 | O=c1[nH]c2ccc(Cl)cc2c(O)c1-c1ccccc1 | inconclusive: 3.26 µM [inhibitor, partial curve] | –
56 | Cc1ccc(S(=O)(=O)Nc2cccc(NC(=O)CN3CCCCC3)c2)cc1 | inconclusive: 20.6 µM [inhibitor, partial curve, poor fit] | –
57 | COc1ccccc1OC(C)C(=O)Nc1nc(-c2ccc(S(=O)(=O)N3CCOCC3)cc2)cs1 (stereo not drawn) | inconclusive: 29.1 µM [inhibitor, single point] | –
58 | O=C(CNC(=O)c1cccs1)NC1=NCCS1 | inconclusive: 14.6 µM [activator, partial curve, poor fit] | –
59 | O=C1N(CCCCN2C(=O)C3(OCCO3)c3ccccc32)c2ccccc2C12OCCO2 | inconclusive: 20.6 µM [inhibitor, single point] | –
60 | O=C1NC(=Nc2ccc(F)cc2)SC1Cc1ccc(F)cc1 (stereo not drawn) | inconclusive: 16.4 µM [inhibitor, single point] | –
61 | Cc1ccc(NC(=O)Cn2nnc(C(=O)NCCc3ccccc3)c2N)cc1Cl | inconclusive: 20.6 µM [activator, partial curve] | –
62 | CCc1ccc2nc(N3C(=O)C(O)=C(C(=O)c4ccco4)C3c3cccs3)sc2c1 (stereo not drawn) | inconclusive: 18.4 µM [activator, partial curve] | –
63 | COc1ccc(/C=N\NC(=O)CCN2CCN(c3ccccc3)CC2)cc1OC | – | inactive: -48%
64 | Cc1ccc(C(=O)N(C)CC(=O)Nc2cccc(F)c2)cc1S(=O)(=O)N1CCCCC1 | – | inactive: -5.96%
65 | CCOc1ccc(NC(=O)c2cc(C3CC3)nc3c2cnn3C(C)C)cc1OC | inconclusive: 13 µM [inhibitor, partial curve] | –
66 | O=C(COc1cccc2ccccc12)NCc1cccnc1 | – | inactive: 2.58%
67 | Brc1ccc(-c2cnc(-c3cccs3)o2)cc1 | inconclusive: 11.2 µM [activator, partial curve] | –
68 | Cc1nc2cc(-c3cccc(F)c3)nn2c(C)c1CCC(=O)NC(C)CCc1ccco1 (stereo not drawn) | inconclusive: 16.4 µM [inhibitor, single point] | –

Exported as tab-separated lines: entries from further up.
Row	SMILES	Potency	activity change, negative = inhibition
48	Cn1cc(CN2CCC(CO)CC2)c(-c2ccc(Oc3ccccc3)cc2)n1	–	inactive: 3.38%
49	O=C(Cc1ccccc1)NCC(=O)N/N=C/c1ccc([N+](=O)[O-])s1	inconclusive: 29.1 µM [inhibitor, single point]	–
50	CCOC(=O)c1ccc(NC(c2ccc(N(C)C)cc2)P(=O)(OC(C)C)OC(C)C)cc1 (stereo not drawn)	–	inactive: -20.5%
51	COc1ccc(S(=O)(=O)NN(C)c2nc(C(F)(F)F)nc3ccccc23)cc1	inconclusive: 23.1 µM [inhibitor, single point]	–
52	CC(=O)N1CCN(C(=O)COC(=O)CNC(=O)c2ccc(C)cc2)CC1	inconclusive: 9.2 µM [activator, partial curve, poor fit]	–
53	Cc1cccc(NC(=O)CCC(=O)c2cccs2)n1	inconclusive: 20.6 µM [activator, single point]	–
54	Cc1cc(=O)[nH]c(-n2nc(C)c(Oc3ccccc3O)c2C)n1	–	inactive: -22.2%
55	O=c1[nH]c2ccc(Cl)cc2c(O)c1-c1ccccc1	inconclusive: 3.26 µM [inhibitor, partial curve]	–
56	Cc1ccc(S(=O)(=O)Nc2cccc(NC(=O)CN3CCCCC3)c2)cc1	inconclusive: 20.6 µM [inhibitor, partial curve, poor fit]	–
57	COc1ccccc1OC(C)C(=O)Nc1nc(-c2ccc(S(=O)(=O)N3CCOCC3)cc2)cs1 (stereo not drawn)	inconclusive: 29.1 µM [inhibitor, single point]	–
58	O=C(CNC(=O)c1cccs1)NC1=NCCS1	inconclusive: 14.6 µM [activator, partial curve, poor fit]	–
59	O=C1N(CCCCN2C(=O)C3(OCCO3)c3ccccc32)c2ccccc2C12OCCO2	inconclusive: 20.6 µM [inhibitor, single point]	–
60	O=C1NC(=Nc2ccc(F)cc2)SC1Cc1ccc(F)cc1 (stereo not drawn)	inconclusive: 16.4 µM [inhibitor, single point]	–
61	Cc1ccc(NC(=O)Cn2nnc(C(=O)NCCc3ccccc3)c2N)cc1Cl	inconclusive: 20.6 µM [activator, partial curve]	–
62	CCc1ccc2nc(N3C(=O)C(O)=C(C(=O)c4ccco4)C3c3cccs3)sc2c1 (stereo not drawn)	inconclusive: 18.4 µM [activator, partial curve]	–
63	COc1ccc(/C=N\NC(=O)CCN2CCN(c3ccccc3)CC2)cc1OC	–	inactive: -48%
64	Cc1ccc(C(=O)N(C)CC(=O)Nc2cccc(F)c2)cc1S(=O)(=O)N1CCCCC1	–	inactive: -5.96%
